In the supplement of paper PMC10060354, “Discovery of a small molecule ligand of FRS2 that inhibits invasion and tumor growth” (Cellular Oncology, 2022):
Many values rest on one well or one pass, so single values are uncertain.

Sequences of proteins named here, by UniProt entry; tags and fusion partners are left off. A change or cut given only in a name is not applied to a line headed by its entry.
UniProt Q9HD45: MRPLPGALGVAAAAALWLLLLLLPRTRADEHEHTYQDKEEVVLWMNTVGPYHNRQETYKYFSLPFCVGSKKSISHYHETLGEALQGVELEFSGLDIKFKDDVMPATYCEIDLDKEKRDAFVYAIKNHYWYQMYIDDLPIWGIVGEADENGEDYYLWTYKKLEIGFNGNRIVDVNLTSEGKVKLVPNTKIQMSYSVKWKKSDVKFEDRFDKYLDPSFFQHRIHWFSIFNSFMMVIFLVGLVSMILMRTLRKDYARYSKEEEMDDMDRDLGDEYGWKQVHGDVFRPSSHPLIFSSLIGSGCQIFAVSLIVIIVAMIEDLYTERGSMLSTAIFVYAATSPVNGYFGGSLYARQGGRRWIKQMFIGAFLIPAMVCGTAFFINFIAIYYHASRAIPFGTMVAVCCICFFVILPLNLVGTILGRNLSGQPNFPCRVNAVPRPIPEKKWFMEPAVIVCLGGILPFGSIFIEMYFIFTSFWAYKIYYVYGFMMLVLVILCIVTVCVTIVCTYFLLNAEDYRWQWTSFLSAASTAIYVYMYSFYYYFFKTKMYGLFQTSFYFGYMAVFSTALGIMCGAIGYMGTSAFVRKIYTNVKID
UniProt Q9BWM7: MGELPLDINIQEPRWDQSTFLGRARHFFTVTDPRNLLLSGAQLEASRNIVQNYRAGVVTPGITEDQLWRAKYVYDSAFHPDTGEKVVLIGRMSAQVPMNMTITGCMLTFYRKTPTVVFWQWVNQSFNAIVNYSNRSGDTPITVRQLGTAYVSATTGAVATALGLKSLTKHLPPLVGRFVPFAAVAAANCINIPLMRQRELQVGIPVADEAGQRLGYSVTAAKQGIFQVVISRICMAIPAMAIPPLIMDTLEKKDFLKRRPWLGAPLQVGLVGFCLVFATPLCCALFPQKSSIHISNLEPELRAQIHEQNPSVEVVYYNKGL
UniProt P60891: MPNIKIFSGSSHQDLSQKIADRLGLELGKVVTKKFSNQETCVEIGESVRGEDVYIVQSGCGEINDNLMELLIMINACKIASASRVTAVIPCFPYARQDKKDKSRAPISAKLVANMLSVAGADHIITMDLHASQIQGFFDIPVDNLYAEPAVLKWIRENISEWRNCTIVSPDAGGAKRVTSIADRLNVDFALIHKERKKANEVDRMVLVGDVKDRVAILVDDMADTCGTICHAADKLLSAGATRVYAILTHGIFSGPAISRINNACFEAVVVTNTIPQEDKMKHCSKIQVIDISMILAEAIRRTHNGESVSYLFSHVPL
UniProt Q96RS0: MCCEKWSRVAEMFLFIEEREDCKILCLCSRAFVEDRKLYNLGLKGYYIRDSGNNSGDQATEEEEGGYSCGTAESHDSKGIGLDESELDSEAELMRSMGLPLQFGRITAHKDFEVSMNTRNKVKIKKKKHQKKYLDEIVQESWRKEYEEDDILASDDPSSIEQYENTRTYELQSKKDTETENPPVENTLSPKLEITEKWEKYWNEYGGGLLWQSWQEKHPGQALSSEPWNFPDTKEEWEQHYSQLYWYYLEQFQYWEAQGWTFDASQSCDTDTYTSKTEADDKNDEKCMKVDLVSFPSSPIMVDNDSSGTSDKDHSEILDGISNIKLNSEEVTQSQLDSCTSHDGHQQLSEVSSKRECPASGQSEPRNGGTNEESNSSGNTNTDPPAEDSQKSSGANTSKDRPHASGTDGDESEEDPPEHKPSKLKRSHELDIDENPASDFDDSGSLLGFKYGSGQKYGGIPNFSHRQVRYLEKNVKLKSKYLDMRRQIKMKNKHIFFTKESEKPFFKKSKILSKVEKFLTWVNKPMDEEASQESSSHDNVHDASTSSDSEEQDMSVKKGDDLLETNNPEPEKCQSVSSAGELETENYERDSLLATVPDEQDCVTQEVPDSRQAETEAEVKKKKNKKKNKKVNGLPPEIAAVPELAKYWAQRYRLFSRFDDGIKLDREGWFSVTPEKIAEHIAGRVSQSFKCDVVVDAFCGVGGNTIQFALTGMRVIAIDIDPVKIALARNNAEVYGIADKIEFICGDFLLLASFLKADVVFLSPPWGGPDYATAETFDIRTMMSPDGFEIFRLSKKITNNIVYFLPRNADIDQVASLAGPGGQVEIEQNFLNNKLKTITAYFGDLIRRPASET
UniProt P11940, whole entry: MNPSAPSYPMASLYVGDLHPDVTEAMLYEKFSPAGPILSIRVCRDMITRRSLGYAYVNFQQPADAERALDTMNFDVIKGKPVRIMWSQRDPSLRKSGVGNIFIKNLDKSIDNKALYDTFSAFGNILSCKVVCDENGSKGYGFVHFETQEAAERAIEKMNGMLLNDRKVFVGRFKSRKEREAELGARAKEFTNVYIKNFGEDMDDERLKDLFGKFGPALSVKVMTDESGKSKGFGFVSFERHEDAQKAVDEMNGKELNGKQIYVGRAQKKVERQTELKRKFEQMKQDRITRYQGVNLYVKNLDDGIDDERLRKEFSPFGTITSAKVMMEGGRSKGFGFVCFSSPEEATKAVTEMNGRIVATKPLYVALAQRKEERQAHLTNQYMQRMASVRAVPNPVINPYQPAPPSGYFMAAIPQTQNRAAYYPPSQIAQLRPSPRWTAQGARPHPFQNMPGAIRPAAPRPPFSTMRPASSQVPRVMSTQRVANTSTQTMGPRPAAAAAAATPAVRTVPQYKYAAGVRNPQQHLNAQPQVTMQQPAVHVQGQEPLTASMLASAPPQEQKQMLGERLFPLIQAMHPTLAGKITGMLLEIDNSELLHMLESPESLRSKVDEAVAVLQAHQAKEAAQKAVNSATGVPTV
UniProt P84095: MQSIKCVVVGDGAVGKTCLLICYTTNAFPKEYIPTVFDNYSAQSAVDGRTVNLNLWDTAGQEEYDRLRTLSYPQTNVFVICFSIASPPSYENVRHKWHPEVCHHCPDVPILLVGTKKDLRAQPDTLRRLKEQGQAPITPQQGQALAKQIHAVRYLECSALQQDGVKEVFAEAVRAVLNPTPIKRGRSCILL
UniProt P62195, whole entry: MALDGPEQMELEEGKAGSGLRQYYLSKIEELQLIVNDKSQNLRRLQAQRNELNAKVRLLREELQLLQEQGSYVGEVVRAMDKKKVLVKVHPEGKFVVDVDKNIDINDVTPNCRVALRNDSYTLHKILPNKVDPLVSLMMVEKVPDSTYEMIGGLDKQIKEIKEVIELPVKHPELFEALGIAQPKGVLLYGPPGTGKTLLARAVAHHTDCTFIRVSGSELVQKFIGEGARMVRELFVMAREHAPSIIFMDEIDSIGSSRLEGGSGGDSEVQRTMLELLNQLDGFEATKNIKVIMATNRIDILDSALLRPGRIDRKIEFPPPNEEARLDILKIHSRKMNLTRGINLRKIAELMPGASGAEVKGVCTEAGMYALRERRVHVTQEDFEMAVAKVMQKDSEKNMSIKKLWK
UniProt Q9NZI8, whole entry: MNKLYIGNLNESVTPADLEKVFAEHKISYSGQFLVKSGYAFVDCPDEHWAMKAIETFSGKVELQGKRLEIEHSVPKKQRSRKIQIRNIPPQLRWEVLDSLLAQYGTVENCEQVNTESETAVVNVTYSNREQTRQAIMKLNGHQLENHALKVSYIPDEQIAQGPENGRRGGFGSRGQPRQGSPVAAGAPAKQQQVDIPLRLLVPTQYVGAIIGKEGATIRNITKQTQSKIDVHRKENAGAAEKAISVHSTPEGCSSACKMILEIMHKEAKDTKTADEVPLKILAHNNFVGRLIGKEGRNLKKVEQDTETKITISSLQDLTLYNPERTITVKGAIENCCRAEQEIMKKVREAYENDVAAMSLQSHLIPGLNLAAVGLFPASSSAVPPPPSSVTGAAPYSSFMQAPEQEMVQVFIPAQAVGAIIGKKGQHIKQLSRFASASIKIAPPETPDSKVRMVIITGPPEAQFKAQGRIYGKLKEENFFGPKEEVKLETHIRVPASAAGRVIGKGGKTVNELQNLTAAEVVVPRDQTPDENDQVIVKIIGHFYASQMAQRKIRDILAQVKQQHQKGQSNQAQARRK
UniProt Q13112, whole entry, looked up: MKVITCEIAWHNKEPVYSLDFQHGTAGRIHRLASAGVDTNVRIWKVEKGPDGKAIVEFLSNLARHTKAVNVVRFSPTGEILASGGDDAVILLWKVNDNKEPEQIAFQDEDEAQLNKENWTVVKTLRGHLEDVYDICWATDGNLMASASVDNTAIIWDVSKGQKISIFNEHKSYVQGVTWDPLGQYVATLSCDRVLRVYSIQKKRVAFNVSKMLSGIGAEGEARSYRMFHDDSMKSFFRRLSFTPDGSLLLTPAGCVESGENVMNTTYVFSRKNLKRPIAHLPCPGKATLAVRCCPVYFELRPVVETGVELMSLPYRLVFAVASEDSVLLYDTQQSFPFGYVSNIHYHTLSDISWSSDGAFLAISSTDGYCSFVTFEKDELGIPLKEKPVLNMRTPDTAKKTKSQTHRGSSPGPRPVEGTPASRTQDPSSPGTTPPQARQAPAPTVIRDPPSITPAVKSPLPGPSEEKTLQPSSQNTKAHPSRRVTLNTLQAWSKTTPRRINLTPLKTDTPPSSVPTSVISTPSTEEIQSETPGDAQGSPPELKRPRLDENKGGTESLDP
UniProt Q9BW27: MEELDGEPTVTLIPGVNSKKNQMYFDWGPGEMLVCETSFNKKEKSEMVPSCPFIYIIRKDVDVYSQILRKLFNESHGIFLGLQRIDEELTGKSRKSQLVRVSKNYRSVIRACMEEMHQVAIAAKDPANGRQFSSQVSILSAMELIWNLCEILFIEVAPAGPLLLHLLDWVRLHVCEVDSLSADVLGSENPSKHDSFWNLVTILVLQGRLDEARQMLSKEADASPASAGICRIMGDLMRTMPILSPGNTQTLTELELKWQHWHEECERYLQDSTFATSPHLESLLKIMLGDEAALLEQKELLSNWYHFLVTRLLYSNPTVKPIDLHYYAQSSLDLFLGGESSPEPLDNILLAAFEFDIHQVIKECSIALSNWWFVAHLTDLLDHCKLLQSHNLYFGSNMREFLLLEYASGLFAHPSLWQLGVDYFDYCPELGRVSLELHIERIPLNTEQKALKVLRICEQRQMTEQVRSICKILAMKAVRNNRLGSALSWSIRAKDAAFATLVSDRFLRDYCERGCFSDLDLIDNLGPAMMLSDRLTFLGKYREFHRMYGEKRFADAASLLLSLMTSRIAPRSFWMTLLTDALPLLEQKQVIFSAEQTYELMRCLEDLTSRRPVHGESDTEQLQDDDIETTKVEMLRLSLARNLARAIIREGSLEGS
UniProt Q00G26: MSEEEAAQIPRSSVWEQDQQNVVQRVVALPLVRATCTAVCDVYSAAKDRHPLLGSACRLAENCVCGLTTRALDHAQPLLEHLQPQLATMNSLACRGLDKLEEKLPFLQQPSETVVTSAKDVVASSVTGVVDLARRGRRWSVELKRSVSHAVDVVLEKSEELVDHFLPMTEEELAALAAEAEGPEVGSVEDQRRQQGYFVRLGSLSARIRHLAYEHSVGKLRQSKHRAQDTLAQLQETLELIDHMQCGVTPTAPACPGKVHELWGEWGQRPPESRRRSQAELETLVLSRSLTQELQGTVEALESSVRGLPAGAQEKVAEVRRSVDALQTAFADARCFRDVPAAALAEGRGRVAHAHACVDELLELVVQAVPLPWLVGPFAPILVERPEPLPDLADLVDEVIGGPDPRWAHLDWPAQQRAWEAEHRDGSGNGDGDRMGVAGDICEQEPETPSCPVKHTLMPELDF
UniProt Q12979: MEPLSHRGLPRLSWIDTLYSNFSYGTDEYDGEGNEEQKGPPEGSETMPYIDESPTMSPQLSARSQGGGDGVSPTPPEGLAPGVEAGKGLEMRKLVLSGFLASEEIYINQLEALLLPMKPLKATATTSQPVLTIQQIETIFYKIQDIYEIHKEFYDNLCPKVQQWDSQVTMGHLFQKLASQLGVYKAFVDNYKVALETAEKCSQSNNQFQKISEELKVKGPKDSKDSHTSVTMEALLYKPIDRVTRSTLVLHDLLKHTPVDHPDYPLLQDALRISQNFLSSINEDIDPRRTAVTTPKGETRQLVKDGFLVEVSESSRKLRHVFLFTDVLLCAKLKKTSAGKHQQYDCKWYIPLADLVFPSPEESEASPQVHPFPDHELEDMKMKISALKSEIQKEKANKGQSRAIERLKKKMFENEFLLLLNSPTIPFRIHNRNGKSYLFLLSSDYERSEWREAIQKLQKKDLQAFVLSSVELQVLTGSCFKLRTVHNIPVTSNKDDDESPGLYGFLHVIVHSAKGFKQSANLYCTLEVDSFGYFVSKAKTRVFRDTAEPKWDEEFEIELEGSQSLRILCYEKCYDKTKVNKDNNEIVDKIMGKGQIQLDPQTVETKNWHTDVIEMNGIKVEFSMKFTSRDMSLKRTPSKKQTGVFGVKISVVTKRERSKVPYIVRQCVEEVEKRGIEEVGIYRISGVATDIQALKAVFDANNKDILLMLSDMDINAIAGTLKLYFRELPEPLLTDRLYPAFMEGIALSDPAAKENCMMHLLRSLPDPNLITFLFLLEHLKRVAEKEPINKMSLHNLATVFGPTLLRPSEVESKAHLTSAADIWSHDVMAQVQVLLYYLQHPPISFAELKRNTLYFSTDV
UniProt P56556, whole entry: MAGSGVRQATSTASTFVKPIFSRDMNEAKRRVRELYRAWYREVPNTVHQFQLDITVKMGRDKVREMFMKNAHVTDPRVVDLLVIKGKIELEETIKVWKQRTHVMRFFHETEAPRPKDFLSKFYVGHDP

Compound: [O-][N+](C(C1=C(C(O)=C2)NC(C(C=C3)=CC=C3Cl)C4C1C=CC4)=C2Cl)=O
Assay: melting temperature shift (compound 7 minus DMSO); higher = compound stabilises the protein
Conditions: 10 µM
Method: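 Thermal proteome profiling (TMT mass spectrometry) in intact DAOY medulloblastoma cells or DAOY lysates treated with 10 µM compound 7 or DMSO, heated at 10 temperatures from 40.5 to 73.8 °C for 3 min. Melting curves were fitted with the Bioconductor TPP package, and the melting point difference between compound and vehicle is reported per protein (single curve per condition).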

[1] = system: DAOY cell lysate, treatment time: 20 min, 4 °C
[2] = system: intact DAOY cells, treatment time: 90 min, 37 °C

Target	melting temperature shift [1]	melting temperature shift [2]
UniProt Q9NS25	1.92 °C	–
UQCRC1 (UniProt P31930)	2.29 °C	0.823 °C
SNAPC1 (UniProt Q16533)	–	-0.912 °C
ICT1 (UniProt Q14197)	0.685 °C	-2.82 °C
MTIF2 (UniProt P46199)	0.23 °C	3.15 °C
TM9SF3 (UniProt Q9HD45)	1.38 °C	-0.957 °C
RPS17 (UniProt P08708)	-0.217 °C	-0.756 °C
UniProt Q16854	–	-0.553 °C
SFXN3 (UniProt Q9BWM7)	0.985 °C	-1.1 °C
NDUFS7 (UniProt O75251)	-0.221 °C	-0.635 °C
PRPS1 (UniProt P60891)	-1.49 °C	-0.199 °C
TGS1 (UniProt Q96RS0)	-1.69 °C	-1.91 °C
NFU1 (UniProt Q9UMS0)	0.733 °C	-0.58 °C
RCC1 (UniProt P18754)	0.26 °C	0.0698 °C
CPS1 (UniProt P31327)	-3.07 °C	-1.89 °C
TEX2 (UniProt Q8IWB9)	0.826 °C	–
CCDC51 (UniProt Q96ER9)	1.9 °C	-0.237 °C
LARS (UniProt Q9P2J5)	-0.929 °C	-0.443 °C
GOLPH3 (UniProt Q9H4A6)	0.626 °C	0.14 °C
MBLAC2 (UniProt Q68D91)	–	-0.828 °C

An excerpt of these results, bar-delimited:
Target | melting temperature shift [1] | melting temperature shift [2]
ICT1 (UniProt Q14197) | 0.685 °C | -2.82 °C
MTIF2 (UniProt P46199) | 0.23 °C | 3.15 °C
TM9SF3 (UniProt Q9HD45) | 1.38 °C | -0.957 °C
RPS17 (UniProt P08708) | -0.217 °C | -0.756 °C
UniProt Q16854 | – | -0.553 °C

Following part

Target	melting temperature shift [1]	melting temperature shift [2]
AFTPH (UniProt Q6ULP2)	2.19 °C	-0.033 °C
DPH7 (UniProt Q9BTV6)	–	0.112 °C
ILK (UniProt Q13418)	0.104 °C	-0.642 °C
SLC35B2 (UniProt Q8TB61)	-0.467 °C	-0.526 °C
UniProt P42166	0.766 °C	-0.783 °C
RAPH1 (UniProt Q70E73)	-0.678 °C	–
ASCC3 (UniProt Q8N3C0)	-0.996 °C	0.209 °C
UniProt Q659C4	–	1.42 °C
ARID2 (UniProt Q68CP9)	-1.13 °C	–
ETNK1 (UniProt Q9HBU6)	-1.41 °C	0.652 °C
PABPC1 (UniProt P11940)	0.122 °C	0.0605 °C
UniProt Q05655	-0.575 °C	–
RHOG (UniProt P84095)	1.11 °C	-0.814 °C
PSMC5 (UniProt P62195)	-0.371 °C	-1.74 °C
LAMTOR3 (UniProt Q9UHA4)	1.29 °C	-0.816 °C
IGF2BP1 (UniProt Q9NZI8)	0.115 °C	0.0738 °C
NVL (UniProt O15381)	-0.346 °C	–
CHAF1B (UniProt Q13112)	0.854 °C	0.244 °C
PGRMC2 (UniProt O15173)	1.75 °C	–
ASB9 (UniProt Q96DX5)	0.612 °C	–

Target	melting temperature shift [1]	melting temperature shift [2]
NR3C1 (UniProt P04150)	0.00244 °C	0.153 °C
UNC45A (UniProt Q9H3U1)	-0.219 °C	-0.632 °C
NUP85 (UniProt Q9BW27)	-0.278 °C	2.79 °C
SRSF9 (UniProt Q13242)	0.437 °C	0.0904 °C
UniProt Q00G26	–	-0.602 °C
GLOD4 (UniProt Q9HC38)	0.0191 °C	0.463 °C
ABR (UniProt Q12979)	-0.94 °C	-0.36 °C
LDAH (UniProt Q9H6V9)	3.86 °C	-0.852 °C
UniProt Q9HAU4	0.505 °C	–
UniProt Q9UBZ9	–	-1.85 °C
UniProt P46379	-0.58 °C	1.08 °C
UniProt O15504	-0.823 °C	–
UniProt P15848	-0.199 °C	–
ATG7 (UniProt O95352)	-0.312 °C	-0.908 °C
UniProt Q9H147	0.523 °C	-3.46 °C
NDUFA6 (UniProt P56556)	0.973 °C	-1.3 °C
MRPL40 (UniProt Q9NQ50)	-0.161 °C	–
LRRC8E (UniProt Q6NSJ5)	-0.277 °C	-2.48 °C
